Measured values as given in patent US20250290045A1, “SMALL MOLECULES AND METHODS FOR MODULATING TEMPORAL CONTROL OF GELATION AND HYDROGEL MECHANICS” (The Board of Trustees of the Leland Stanford Junior …, priority 2022, published 2025).

Assay: Hydrazone reaction rates of competitors with model reactants, UV spectroscopy
Assay type: physicochemical
Settings: relative strength of the two competing reactions
Experimental: To quantify the extent that side groups impact reaction parameters, the forward (k1) and reverse (k−1) reaction rates were measured for each competitor at 50 μM (Table 2). For these reactions, the complementary reactant was chosen to be 50 μM of either benzaldehyde (BZA) or hydrazinoacetic acid (HydAA), because they are the crosslinking functionalities of HELP, and can provide key insight into DCC interactions without the complexity of the full HA and ELP polymers. (Winne, Leibler et al. 2019) The formation of a hydrazone bond was observed via absorbance with UV spectroscopy and converted to a concentration over time. An analytical solution to a second order reaction rate, assuming equal concentrations of reactants, was fit to the concentration as a function of time. (Dirksen, Dirksen et al. 2006, Mckinnon, Domaille et al. 2014)

SMILES | Keq^1/Keq^2 (competitor reaction relative to crosslinking reaction)
NNCC(=O)O [Hydrazinoacetic acid, hydrazinoacetic acid] | ~10^0
NNc1ccc(C(=O)O)cc1 [Hydrazinobenzoic acid, 4-hydrazinobenzoic acid] | ~10^1
CCCC=O [Butyraldehyde, butyraldehyde] | ~10^2
